From PMC12697865, “ZFPL1 Promotes Colorectal Cancer Progression by Stabilizing ASS1 to Drive the Urea Cycle and M2 Macrophage‐Mediated Metastatic Colonization” (Advanced Science, 2025)
No constants are given. Whether binding was seen depends on the method and setting. For some of these results: Binding seen in cells or lysates may run through a third protein. Some results given as binding are weak or reduced against the parent protein; the word gives no strength. For some of these results: Sequences can lack the tags named with a protein.

Legend:
[1] = target: T1, Flag-tagged ZFPL1-WT (zinc finger protein-like 1) (human) (UniProt O95159); test: co-IP; HEK293T cells transfected with His-tagged ASS1 (WT or Mut) and Flag-tagged ZFPL1 (WT or Mut); IP kit, immunoblot
T1 sequence: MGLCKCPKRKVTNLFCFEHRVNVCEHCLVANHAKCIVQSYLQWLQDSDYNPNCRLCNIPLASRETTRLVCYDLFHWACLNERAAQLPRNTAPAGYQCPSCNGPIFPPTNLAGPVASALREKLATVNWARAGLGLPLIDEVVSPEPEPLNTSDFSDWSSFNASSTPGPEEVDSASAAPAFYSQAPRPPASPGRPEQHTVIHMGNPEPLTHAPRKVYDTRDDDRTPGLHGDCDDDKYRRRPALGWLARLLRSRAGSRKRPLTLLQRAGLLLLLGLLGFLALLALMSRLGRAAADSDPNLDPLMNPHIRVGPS

[2] = target: T2, Purified recombinant ZFPL1 protein (bait of the GST pull-down) (human) (UniProt O95159); test: pull-down; GST pull-down: 15 µg purified recombinant ZFPL1 on glutathione agarose, 4 °C, 1 h, then 15 µg purified recombinant ASS1 for 1 h; eluate by SDS-PAGE and Western blot; GST as negative control; both purified
T2 sequence: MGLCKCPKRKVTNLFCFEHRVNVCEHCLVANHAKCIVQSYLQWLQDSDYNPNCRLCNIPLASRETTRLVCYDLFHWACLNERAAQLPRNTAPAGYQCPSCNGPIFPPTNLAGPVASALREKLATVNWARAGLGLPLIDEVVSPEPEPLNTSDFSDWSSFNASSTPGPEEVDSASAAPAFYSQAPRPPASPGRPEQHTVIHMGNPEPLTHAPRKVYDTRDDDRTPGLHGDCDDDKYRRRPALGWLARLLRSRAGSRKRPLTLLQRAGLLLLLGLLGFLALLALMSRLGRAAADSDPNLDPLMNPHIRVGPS

[3] = target: T3, Fluorescently labelled ZFPL1 (MST) (human) (UniProt O95159); test: MST; fluorescently labelled ZFPL1 mixed with varying concentrations of ASS1; Monolith NT.115; buffer pH 7.4, 1 mM MgCl2, 3 mM KCl, 150 mM NaCl, 0.05% Tween-20; also with Salvianolic acid B added; both purified
T3 sequence (chain, fluorescent label (dye and site not stated)): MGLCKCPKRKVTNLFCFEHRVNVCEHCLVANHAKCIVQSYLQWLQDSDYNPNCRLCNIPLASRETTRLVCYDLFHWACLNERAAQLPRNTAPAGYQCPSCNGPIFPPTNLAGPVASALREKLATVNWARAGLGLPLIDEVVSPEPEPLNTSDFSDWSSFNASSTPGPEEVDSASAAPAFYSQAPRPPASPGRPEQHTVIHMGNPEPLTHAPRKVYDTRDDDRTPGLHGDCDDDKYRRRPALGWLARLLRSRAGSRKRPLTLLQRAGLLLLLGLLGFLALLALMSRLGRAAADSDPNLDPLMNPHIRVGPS

ASS1 in CRC cells = target: T4, ASS1 in CRC cells (UniProt P00966); test: co-IP; co-IP of ASS1 and TRIM33 in CRC cells; IP kit, immunoblot
T4 sequence: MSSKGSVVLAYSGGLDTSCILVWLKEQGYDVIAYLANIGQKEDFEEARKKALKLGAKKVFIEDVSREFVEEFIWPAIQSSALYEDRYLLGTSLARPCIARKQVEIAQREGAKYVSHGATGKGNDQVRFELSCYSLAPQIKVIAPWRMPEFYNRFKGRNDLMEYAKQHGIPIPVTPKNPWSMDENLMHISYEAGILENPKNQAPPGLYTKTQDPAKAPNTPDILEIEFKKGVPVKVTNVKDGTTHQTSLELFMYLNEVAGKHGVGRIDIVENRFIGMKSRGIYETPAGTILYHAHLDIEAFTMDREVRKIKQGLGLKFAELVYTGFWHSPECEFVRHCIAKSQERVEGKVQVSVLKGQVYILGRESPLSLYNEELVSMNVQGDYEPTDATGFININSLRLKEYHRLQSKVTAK

B1: His-tagged ASS1-WT (argininosuccinate synthase 1) (protein, UniProt P00966 1-412)
chain: MSSKGSVVLAYSGGLDTSCILVWLKEQGYDVIAYLANIGQKEDFEEARKKALKLGAKKVFIEDVSREFVEEFIWPAIQSSALYEDRYLLGTSLARPCIARKQVEIAQREGAKYVSHGATGKGNDQVRFELSCYSLAPQIKVIAPWRMPEFYNRFKGRNDLMEYAKQHGIPIPVTPKNPWSMDENLMHISYEAGILENPKNQAPPGLYTKTQDPAKAPNTPDILEIEFKKGVPVKVTNVKDGTTHQTSLELFMYLNEVAGKHGVGRIDIVENRFIGMKSRGIYETPAGTILYHAHLDIEAFTMDREVRKIKQGLGLKFAELVYTGFWHSPECEFVRHCIAKSQERVEGKVQVSVLKGQVYILGRESPLSLYNEELVSMNVQGDYEPTDATGFININSLRLKEYHRLQSKVTAK
In the case of B1, the binding [1] is reported as “binds”.

B2: Purified recombinant ASS1 protein (prey of the GST pull-down) (protein, UniProt P00966 1-412)
chain: MSSKGSVVLAYSGGLDTSCILVWLKEQGYDVIAYLANIGQKEDFEEARKKALKLGAKKVFIEDVSREFVEEFIWPAIQSSALYEDRYLLGTSLARPCIARKQVEIAQREGAKYVSHGATGKGNDQVRFELSCYSLAPQIKVIAPWRMPEFYNRFKGRNDLMEYAKQHGIPIPVTPKNPWSMDENLMHISYEAGILENPKNQAPPGLYTKTQDPAKAPNTPDILEIEFKKGVPVKVTNVKDGTTHQTSLELFMYLNEVAGKHGVGRIDIVENRFIGMKSRGIYETPAGTILYHAHLDIEAFTMDREVRKIKQGLGLKFAELVYTGFWHSPECEFVRHCIAKSQERVEGKVQVSVLKGQVYILGRESPLSLYNEELVSMNVQGDYEPTDATGFININSLRLKEYHRLQSKVTAK
B2 was tested, and the binding [2] was “binds”.

B3: ASS1-WT (MST) (protein, UniProt P00966 1-412)
chain: MSSKGSVVLAYSGGLDTSCILVWLKEQGYDVIAYLANIGQKEDFEEARKKALKLGAKKVFIEDVSREFVEEFIWPAIQSSALYEDRYLLGTSLARPCIARKQVEIAQREGAKYVSHGATGKGNDQVRFELSCYSLAPQIKVIAPWRMPEFYNRFKGRNDLMEYAKQHGIPIPVTPKNPWSMDENLMHISYEAGILENPKNQAPPGLYTKTQDPAKAPNTPDILEIEFKKGVPVKVTNVKDGTTHQTSLELFMYLNEVAGKHGVGRIDIVENRFIGMKSRGIYETPAGTILYHAHLDIEAFTMDREVRKIKQGLGLKFAELVYTGFWHSPECEFVRHCIAKSQERVEGKVQVSVLKGQVYILGRESPLSLYNEELVSMNVQGDYEPTDATGFININSLRLKEYHRLQSKVTAK
B3 was tested, and the binding [3] was “binds”.

B4: TRIM33 (tripartite motif containing 33) in CRC cells (protein, UniProt Q9UPN9 1-1127)
chain: MAENKGGGEAESGGGGSGSAPVTAGAAGPAAQEAEPPLTAVLVEEEEEEGGRAGAEGGAAGPDDGGVAAASSGSAQAASSPAASVGTGVAGGAVSTPAPAPASAPAPGPSAGPPPGPPASLLDTCAVCQQSLQSRREAEPKLLPCLHSFCLRCLPEPERQLSVPIPGGSNGDIQQVGVIRCPVCRQECRQIDLVDNYFVKDTSEAPSSSDEKSEQVCTSCEDNASAVGFCVECGEWLCKTCIEAHQRVKFTKDHLIRKKEDVSESVGASGQRPVFCPVHKQEQLKLFCETCDRLTCRDCQLLEHKEHRYQFLEEAFQNQKGAIENLLAKLLEKKNYVHFAATQVQNRIKEVNETNKRVEQEIKVAIFTLINEINKKGKSLLQQLENVTKERQMKLLQQQNDITGLSRQVKHVMNFTNWAIASGSSTALLYSKRLITFQLRHILKARCDPVPAANGAIRFHCDPTFWAKNVVNLGNLVIESKPAPGYTPNVVVGQVPPGTNHISKTPGQINLAQLRLQHMQQQVYAQKHQQLQQMRMQQPPAPVPTTTTTTQQHPRQAAPQMLQQQPPRLISVQTMQRGNMNCGAFQAHQMRLAQNAARIPGIPRHSGPQYSMMQPHLQRQHSNPGHAGPFPVVSVHNTTINPTSPTTATMANANRGPTSPSVTAIELIPSVTNPENLPSLPDIPPIQLEDAGSSSLDNLLSRYISGSHLPPQPTSTMNPSPGPSALSPGSSGLSNSHTPVRPPSTSSTGSRGSCGSSGRTAEKTSLSFKSDQVKVKQEPGTEDEICSFSGGVKQEKTEDGRRSACMLSSPESSLTPPLSTNLHLESELDALASLENHVKIEPADMNESCKQSGLSSLVNGKSPIRSLMHRSARIGGDGNNKDDDPNEDWCAVCQNGGDLLCCEKCPKVFHLTCHVPTLLSFPSGDWICTFCRDIGKPEVEYDCDNLQHSKKGKTAQGLSPVDQRKCERLLLYLYCHELSIEFQEPVPASIPNYYKIIKKPMDLSTVKKKLQKKHSQHYQIPDDFVADVRLIFKNCERFNEMMKVVQVYADTQEINLKADSEVAQAGKAVALYFEDKLTEIYSDRTFAPLPEFEQEEDDGEVTEDSDEDFIQPRRKRLKSDERPVHIK
B4 was tested, and the binding (ASS1 in CRC cells) was “binds”.
